From patent EP4796557A1 (priority 2023, dated 2025)
For some assays here: Strings that start with PEPTIDE1 are HELM notation: dots part the residues, brackets hold end groups and non-standard residues.

Experiments:
[1] = general procedure: Fmoc solid-phase peptide synthesis; 2-CTC resin; HBTU/DIEA; conditions: whole synthesis, scale 1.50 mmol, TFA
[2] = general procedure: Fmoc solid-phase peptide synthesis; Rink Amide MBHA resin (0.3 mmol/g); CTC resin (0.83 or 0.64 mmol/g); HBTU/DIEA; conditions: TFA; for isolated mass: scale 2.0 mmol
[3] = general procedure: Fmoc solid-phase peptide synthesis; CTC resin; HBTU/DIEA; conditions: whole synthesis, scale 2.0 mmol, TFA
[4] = general procedure: Fmoc solid-phase peptide synthesis; Rink Amide MBHA; HBTU/DIEA; conditions: whole synthesis, scale 0.1 mmol, TFA
[5] = whole synthesis, scale of the general procedure 0.1 mmol (Rink Amide), 1.0-2.0 mmol (CTC)

((S)-2-((S)-1-((6-(2,5-dioxo-2,5-dihydro-1H-pyrrol-1-yl)hexanoyl)-L-seryl)pyrrolidin-2-carboxamido)-5-ureidopentanoyl)-L-seryl-L-leucine
final purity (method not given) [1]: 99.67% | isolated yield [1]: 79.3%

(6-(2,5-dioxo-2,5-dihydro-1H-pyrrol-1-yl)hexanoyl)glycyl-L-prolyl-L-arginylglycyl-L leucine
isolated mass ([2]; whole synthesis): 120 mg | final purity (method not given) [2, 5]: 99.0% | crude mass [3]: 1.4 g

PEPTIDE1{[ac].P.R.G.L.V.[Cit].[am]}$$$$V2.0
final purity (method not given) [2, 5]: 99.5% | isolated yield [2, 5]: 9.97% | crude mass [4]: 0.20 g | isolated mass [4]: 7.4 mg

(6-(2,5-dioxo-2,5-dihydro-1H-pyrrol-1-yl)hexanoyl)glycyl-L-prolyl-L-seryl-L-alanyl-L-leucine
isolated mass ([2]; whole synthesis): 90 mg | final purity (method not given) [2, 5]: 99.6% | crude mass [3]: 1.2 g

(6-(2,5-dioxo-2,5-dihydro-1H-pyrrol-1-yl)hexanoyl)glycyl-L-prolyl-L-alanyl-L-seryl-L-leucine
isolated mass ([2]; whole synthesis): 110 mg | final purity (method not given) [2, 5]: 99.8% | crude mass [3]: 1.2 g

4-((6S,12S,15S,18S)-1-amino-6-((S)-1-((6-(2,5-dioxo-2,5-dihydro-1H-py rrol-1-yl)hexyl)-L-histidyl)pyrrolidin-2-carboxamido)-1-imino-12-isobutyl-15-isopropyl-7,10,13,16 -tetraoxo-18-(3-ureidopropyl)-2,8,11,14,17-pentaazanonan-19-amido)benzyl((1S,9S)-9-ethyl)-5-flu
step yield ([2]; late stage modification step): 24.5%

(6-(2,5-dioxo-2,5-dihydro-1H-pyrrol-1-yl)hexanoyl)glycyl-L-prolyl-L-alanyl-glycyl-L-leucylglycylglycyl-L-phenylalanyl-glycine
final purity (method not given) [2, 5]: 99.8%

PEPTIDE1{[MC].P.A.S.L.V.[Cit].[PAB-DX8951]}$$$$V2.0
conjugation yield ([2]; conjugation step): 22.3%

PEPTIDE1{[MC].P.[Cit].N.L.V.[Cit].[PAB-DX8951]}$$$$V2.0
conjugation yield ([2]; conjugation step): 4.43% | final purity (method not given) ([2]; conjugation step): 88.9%

(6-(2,5-dioxo-2,5-dihydro-1H-pyrrol-1-yl)hexanoyl)glycyl-L-prolyl-L-leucylglycyl-L-leucylglycylglycyl-L-phenylalanyl-glycine
final purity (method not given) [2, 5]: 99.5%

(6-(2,5-dioxo-2,5-dihydro-1H-pyrrol-1-yl)hexanoyl)glycyl-L-prolyl-L-arginylglycyl-L-leucylglycylglycyl-L-phenylalanyl-glycine
final purity (method not given) [2, 5]: 99.1%

4-((6S,9S,12S,15S,18S)-1-amino-9-(2-amino-2-oxoethyl)-6-((S)-1-(6-(2, 5-dioxo-2,5-dihydro-1H-pyrrol-1-yl)hexanoyl)-L-seryl)pyrrolidin-2-carboxamido)-1-imino-12-isob utyl-15-isopropyl-7,10,13,16-tetraoxo-18-(3-ureidopropyl)-2,8,11,14,17-pentaazanonadecan-19-ami do)benzyl((1S,9S)
conjugation yield ([2]; conjugation step): 15.9%
